# Screening data

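A panel of P. falciparum strains inside erythrocytes is exposed to compounds for three days, then a DNA-binding dye reports the amount of parasite DNA.
Each compound was titrated across a series from about 0.000037 to 29 µM.
The number is the fitted AC50, the concentration giving a half-maximal change in signal; a lower value means higher potency, whether the curve shows a decrease or an increase.
Calls follow the curve class and fit quality: every row here is inconclusive, covering signal-raising curves and weak, poorly fitted, partial or highest-dose-only inhibition curves.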

Values are in µM.
All entries here are filed as inconclusive.
These entries are mostly ones the record files as inconclusive; other results of the assay are not listed here.
Potencies fitted to partial, single-point or poorly fitting curves are rough.

CCOC(=O)c1c(N)sc2c1CCN(Cc1ccccc1)C2 [PC15] read fitted potency 5.012 µM (inhibitor, partial curve).
CCOC(=O)c1c(N)sc2c1CCN(Cc1ccccc1)C2 [PAD] read fitted potency 5.623 µM (inhibitor, partial curve).
NNc1nncc2ccccc12 [AS120] read fitted potency 10 µM (inhibitor, single point).
NNc1nncc2ccccc12 [TAB165] read fitted potency 7.08 µM (inhibitor, single point).
NNc1nncc2ccccc12 [CP269] read fitted potency 4.548 µM (inhibitor, single point).
NNc1nncc2ccccc12 [CP203] read fitted potency 5.726 µM (inhibitor, single point).
NNc1nncc2ccccc12 [3D7] read fitted potency 5.012 µM (inhibitor, single point).
NNc1nncc2ccccc12 [PC26] read fitted potency 8.087 µM (inhibitor, single point).
NNc1nncc2ccccc12 [CP268] read fitted potency 5.726 µM (inhibitor, single point).
NNc1nncc2ccccc12 [DFO2036] read fitted potency 10 µM (inhibitor, single point).
NNc1nncc2ccccc12 [GB4] read fitted potency 5.726 µM (inhibitor, single point).
NNc1nncc2ccccc12 [CP305] read fitted potency 8.087 µM (inhibitor, single point).
NNc1nncc2ccccc12 [CP265] read fitted potency 7.08 µM (inhibitor, single point).
NNc1nncc2ccccc12 [TAB109] read fitted potency 7.08 µM (inhibitor, single point).
NNc1nncc2ccccc12 [JCK] read fitted potency 7.08 µM (inhibitor, single point).
NNc1nncc2ccccc12 [ECU] read fitted potency 5.012 µM (inhibitor, single point).
NNc1nncc2ccccc12 [SC27B] read fitted potency 10 µM (inhibitor, single point).
NNc1nncc2ccccc12 [TAB113] read fitted potency 10 µM (inhibitor, single point).
NNc1nncc2ccccc12 [CP237] read fitted potency 7.08 µM (inhibitor, single point).
NNc1nncc2ccccc12 [CP335] read fitted potency 6.424 µM (inhibitor, single point).
NNc1nncc2ccccc12 [CP325] read fitted potency 8.087 µM (inhibitor, single point).
NNc1nncc2ccccc12 [CP215] read fitted potency 8.087 µM (inhibitor, single point).
NNc1nncc2ccccc12 [CP247] read fitted potency 10 µM (inhibitor, single point).
NNc1nncc2ccccc12 [FAB9] read fitted potency 8.912 µM (inhibitor, single point).

Repeated from the top, 2 entries:

{"smiles": "CCOC(=O)c1c(N)sc2c1CCN(Cc1ccccc1)C2", "setting": "PC15", "fitted potency (µM)": "5.012", "curve": "inhibitor, partial curve"}
{"smiles": "CCOC(=O)c1c(N)sc2c1CCN(Cc1ccccc1)C2", "setting": "PAD", "fitted potency (µM)": "5.623", "curve": "inhibitor, partial curve"}

From PubChem BioAssay record AID504749 (NCATS, 2011).